These are yes or no findings as the source states them, for the method shown. Binding calls can cover weak binding; strength is not graded here. For some of these results: In cells and extracts the contact can be indirect.
Experiments:
[1] = molecular target: CD44 intracellular domain (CD44ICD), 3xFlag (DDK) tagged (human) (UniProt P16070); test: co-IP; HUVECs transduced with DDK(3xFlag)-tagged CD44ICD construct; lysis in IP buffer (pH 7.5, 20 mM Tris, 137 mM NaCl, 1% NP-40, 5% glycerol); anti-DDK or IgG overnight at 4 °C, protein A/G agarose; western blot
[2] = molecular target: BD-STAT3 (STAT3 in pGBKT7, two-hybrid bait) (UniProt P40763); test: two-hybrid; yeast strain AH109 co-transformed with bait (pGBKT7) and prey (pGADT7); growth on SD-Leu-Trp-Ade-His with X-α-gal

Sequences of proteins named here, by UniProt entry; tags and fusion partners are left off. A change or cut given only in a name is not applied to a line headed by its entry.
UniProt P16070: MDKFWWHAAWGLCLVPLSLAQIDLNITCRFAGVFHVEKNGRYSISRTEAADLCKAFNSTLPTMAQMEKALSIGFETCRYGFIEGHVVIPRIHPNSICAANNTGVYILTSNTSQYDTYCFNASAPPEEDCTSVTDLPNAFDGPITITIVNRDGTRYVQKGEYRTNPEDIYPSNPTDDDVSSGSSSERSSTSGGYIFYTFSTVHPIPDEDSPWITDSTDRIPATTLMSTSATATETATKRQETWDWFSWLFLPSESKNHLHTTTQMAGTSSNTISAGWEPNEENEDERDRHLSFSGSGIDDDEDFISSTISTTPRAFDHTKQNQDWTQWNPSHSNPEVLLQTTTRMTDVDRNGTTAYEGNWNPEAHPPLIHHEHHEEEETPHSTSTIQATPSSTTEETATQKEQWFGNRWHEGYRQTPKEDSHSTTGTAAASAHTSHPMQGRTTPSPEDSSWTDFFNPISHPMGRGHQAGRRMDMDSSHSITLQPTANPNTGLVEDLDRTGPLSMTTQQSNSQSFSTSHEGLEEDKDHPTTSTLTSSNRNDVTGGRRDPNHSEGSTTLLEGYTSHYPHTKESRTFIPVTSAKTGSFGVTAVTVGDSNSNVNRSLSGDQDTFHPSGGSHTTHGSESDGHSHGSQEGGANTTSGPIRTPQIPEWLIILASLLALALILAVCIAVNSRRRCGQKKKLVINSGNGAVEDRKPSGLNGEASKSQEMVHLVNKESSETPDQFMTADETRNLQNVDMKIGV
UniProt P40763: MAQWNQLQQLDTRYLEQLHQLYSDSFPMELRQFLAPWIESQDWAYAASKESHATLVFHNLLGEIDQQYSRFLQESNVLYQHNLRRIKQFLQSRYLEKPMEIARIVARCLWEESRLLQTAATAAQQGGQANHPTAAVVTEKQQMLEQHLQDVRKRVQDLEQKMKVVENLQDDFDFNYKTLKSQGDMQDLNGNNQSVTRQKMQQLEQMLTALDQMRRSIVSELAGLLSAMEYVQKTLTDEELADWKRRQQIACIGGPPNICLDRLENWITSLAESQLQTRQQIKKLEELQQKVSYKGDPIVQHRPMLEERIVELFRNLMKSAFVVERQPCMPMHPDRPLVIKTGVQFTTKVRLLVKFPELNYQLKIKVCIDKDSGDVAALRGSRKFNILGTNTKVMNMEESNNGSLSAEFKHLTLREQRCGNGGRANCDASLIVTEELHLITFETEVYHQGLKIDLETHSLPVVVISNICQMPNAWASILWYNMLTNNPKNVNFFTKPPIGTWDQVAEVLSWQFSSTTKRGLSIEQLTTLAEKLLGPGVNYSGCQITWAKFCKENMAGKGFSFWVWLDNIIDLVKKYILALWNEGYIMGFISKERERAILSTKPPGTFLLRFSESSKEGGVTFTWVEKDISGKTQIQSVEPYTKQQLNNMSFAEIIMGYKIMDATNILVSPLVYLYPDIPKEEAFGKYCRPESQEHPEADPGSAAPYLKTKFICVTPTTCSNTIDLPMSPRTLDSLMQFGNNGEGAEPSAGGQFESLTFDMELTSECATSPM
UniProt Q14457: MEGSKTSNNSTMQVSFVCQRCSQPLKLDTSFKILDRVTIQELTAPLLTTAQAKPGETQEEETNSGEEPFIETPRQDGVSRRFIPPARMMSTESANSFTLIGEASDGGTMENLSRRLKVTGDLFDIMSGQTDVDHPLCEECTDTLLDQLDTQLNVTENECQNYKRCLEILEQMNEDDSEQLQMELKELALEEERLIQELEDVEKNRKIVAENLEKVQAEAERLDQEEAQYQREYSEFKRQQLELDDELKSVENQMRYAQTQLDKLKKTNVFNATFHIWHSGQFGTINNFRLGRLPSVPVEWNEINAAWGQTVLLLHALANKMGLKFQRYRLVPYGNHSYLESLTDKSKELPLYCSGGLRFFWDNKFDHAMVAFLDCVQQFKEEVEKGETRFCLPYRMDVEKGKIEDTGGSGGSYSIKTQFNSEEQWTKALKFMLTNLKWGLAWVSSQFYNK
UniProt Q6ZNE5: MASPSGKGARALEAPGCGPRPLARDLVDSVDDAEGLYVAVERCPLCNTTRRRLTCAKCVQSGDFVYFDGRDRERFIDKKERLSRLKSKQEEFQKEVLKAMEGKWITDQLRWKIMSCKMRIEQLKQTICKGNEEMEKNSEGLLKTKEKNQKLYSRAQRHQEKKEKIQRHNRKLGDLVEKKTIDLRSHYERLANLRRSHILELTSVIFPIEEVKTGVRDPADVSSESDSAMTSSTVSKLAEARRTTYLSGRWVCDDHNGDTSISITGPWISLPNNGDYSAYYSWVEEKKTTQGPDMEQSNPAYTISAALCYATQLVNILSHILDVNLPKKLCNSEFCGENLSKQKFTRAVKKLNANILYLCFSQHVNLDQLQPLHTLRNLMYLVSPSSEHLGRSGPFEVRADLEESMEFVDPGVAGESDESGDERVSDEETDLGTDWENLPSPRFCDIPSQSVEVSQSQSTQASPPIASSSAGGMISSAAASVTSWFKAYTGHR

| binding [1] | binding [2] | Substance |
| --- | --- | --- |
| no binding | – | BECN1, endogenous (from UniProt Q14457 1-450) |
| binds | – | STAT3 (signal transducer and activator of transcription 3), endogenous (from UniProt P40763 1-770) |
| no binding | – | autophagy-related protein 14-like protein (Atg14L), endogenous (from UniProt Q6ZNE5 1-492) |
| – | binds | pGADT7-CD44ICD (CD44ICD fused to the Gal4 activation domain, two-hybrid prey) (from UniProt P16070-12) (domain or fragment) |
